system: esophageal cancer samples versus a panel of normal tissues; test: Label-free relative LC-MS quantitation of HLA-presented peptides (presentation profile/score); design: species or system human; key: very highly over-presented on tumors compared to a panel of normal tissues (+++); highly over-presented on tumors compared to a panel of normal tissues (++); over-presented on tumors compared to a panel of normal tissues (+); conditions: tumors compared to a panel of normal tissues

Substance | Peptide Presentation
89 (SLADSLYNL; listed as Homo sapiens) [compound 89] | +
26 (MLAEKLLQA; listed as Homo sapiens) [compound 26] | +++
55 (GAIDLLHNV; listed as Homo sapiens) [compound 55] | +++
15 (LLANGVYAA; listed as Homo sapiens) [compound 15] | +++
75 (GLMDDVDFKA; listed as Homo sapiens) [compound 75] | +
4 (ALFGTILEL; listed as Homo sapiens) [compound 4] | ++
12 (GLASRILDA; listed as Homo sapiens) [compound 12] | +++
13 (SLSPVILGV; listed as Homo sapiens) [compound 13] | +++
94 (TLLQEQGTKTV; listed as Homo sapiens) [compound 94] | +
84 (SLAESLDQA; listed as Homo sapiens) [compound 84] | +
6 (LLSGDLIFL; listed as Homo sapiens) [compound 6] | +++
58 (LILESIPVV; listed as Homo sapiens) [compound 58] | +++
29 (SLDGTELQL; listed as Homo sapiens) [compound 29] | +++
51 (KLFGHLTSA; listed as Homo sapiens) [compound 51] | +++
61 (TQTTHELTI; listed as Homo sapiens) [compound 61] | +++
78 (KVANIIAEV; listed as Homo sapiens) [compound 78] | +
86 (GLLTEIRAV; listed as Homo sapiens) [compound 86] | +
72 (FLPPAQVTV; listed as Homo sapiens) [compound 72] | +
24 (LLFAGTMTV; listed as Homo sapiens) [compound 24] | +++
8 (ALLDGGSEAYWRV; listed as Homo sapiens) [compound 8] | +++
92 (SILRHVAEV; listed as Homo sapiens) [compound 92] | +
10 (SLDENSDQQV; listed as Homo sapiens) [compound 10] | +++
34 (SLVSEQLEPA; listed as Homo sapiens) [compound 34] | +
23 (KLSDSATYL; listed as Homo sapiens) [compound 23] | +++
40 (GLAFSLYQA; listed as Homo sapiens) [compound 40] | +++
28 (SLDGFTIQV; listed as Homo sapiens) [compound 28] | +++

Substance | Peptide Presentation
5 (NLMASQPQL; listed as Homo sapiens) [compound 5] | +++
48 (SMHQMLDQTL; listed as Homo sapiens) [compound 48] | +++
82 (HLLGHLEQA; listed as Homo sapiens) [compound 82] | +++
35 (LLRFSQDNA; listed as Homo sapiens) [compound 35] | +++
81 (AVLPHVDQV; listed as Homo sapiens) [compound 81] | +++
65 (YVVGGFLYQRL; listed as Homo sapiens) [compound 65] | +++
1 (STYGGGLSV; listed as Homo sapiens) [compound 1] | +++
25 (LLPPPPPPA; listed as Homo sapiens) [compound 25] | +++
77 (VLVPYEPPQV; listed as Homo sapiens) [compound 77] | ++
18 (FLLDQVQLGL; listed as Homo sapiens) [compound 18] | +++
73 (KITEAIQYV; listed as Homo sapiens) [compound 73] | +
45 (MLTELEKAL; listed as Homo sapiens) [compound 45] | +++
57 (GLAPNTPGKA; listed as Homo sapiens) [compound 57] | +++
32 (YMLDIFHEV; listed as Homo sapiens) [compound 32] | +++
38 (IAAIRGFLV; listed as Homo sapiens) [compound 38] | +++
30 (SLNGNQVTV; listed as Homo sapiens) [compound 30] | +++
41 (GLESEELEPEEL; listed as Homo sapiens) [compound 41] | +
66 (LLDEKVQSV; listed as Homo sapiens) [compound 66] | +
7 (SIFEGLLSGV; listed as Homo sapiens) [compound 7] | +++
11 (ALWLPTDSATV; listed as Homo sapiens) [compound 11] | +++
21 (IVREFLTAL; listed as Homo sapiens) [compound 21] | +++
71 (ASDPILYRPVAV; listed as Homo sapiens) [compound 71] | +
70 (FVLDTSESV; listed as Homo sapiens) [compound 70] | +
47 (VLASGFLTV; listed as Homo sapiens) [compound 47] | +++
14 (RLPNAGTQV; listed as Homo sapiens) [compound 14] | +++
9 (HLIAEIHTA; listed as Homo sapiens) [compound 9] | +++

Substance | Peptide Presentation
2 (SLYNLGGSKRISI; listed as Homo sapiens) [compound 2] | +++
80 (ALQEALENA; listed as Homo sapiens) [compound 80] | ++
63 (LAYTLGVKQL; listed as Homo sapiens) [compound 63] | +++
33 (GLDVTSLRPFDL; listed as Homo sapiens) [compound 33] | +++
87 (FLDNGPKTI; listed as Homo sapiens) [compound 87] | +
19 (GLAPFLLNAV; listed as Homo sapiens) [compound 19] | +++
37 (YTQPFSHYGQAL; listed as Homo sapiens) [compound 37] | +++
91 (KLIDDVHRL; listed as Homo sapiens) [compound 91] | +
88 (GLWEQENHL; listed as Homo sapiens) [compound 88] | +
59 (SLLDTLREV; listed as Homo sapiens) [compound 59] | +++
62 (ALYEYQPLQI; listed as Homo sapiens) [compound 62] | +++
3 (TASAITPSV; listed as Homo sapiens) [compound 3] | +++
44 (ATGNDRKEAAENSL; listed as Homo sapiens) [compound 44] | +++
64 (GLTDVIRDV; listed as Homo sapiens) [compound 64] | ++
36 (FLLRFSQDNA; listed as Homo sapiens) [compound 36] | +++
27 (NLREGDQLL; listed as Homo sapiens) [compound 27] | +++
39 (LVRDTQSGSL; listed as Homo sapiens) [compound 39] | +++
52 (VAIGGVDGNVRL; listed as Homo sapiens) [compound 52] | +++
68 (PAVLQSSGLYSL; listed as Homo sapiens) [compound 68] | +++
17 (MISRTPEV; listed as Homo sapiens) [compound 17] | +++
50 (GMNPHQTPAQL; listed as Homo sapiens) [compound 50] | +++
16 (VLAEGGEGV; listed as Homo sapiens) [compound 16] | +++
22 (KLNDTYVNV; listed as Homo sapiens) [compound 22] | +++
20 (IIEVDPDTKEML; listed as Homo sapiens) [compound 20] | +++

system: other cancer tissue samples; test: LC-MS detection of the peptide on other cancer samples (FIG. 1 legend); design: species or system human; conditions: positive/measured colorectal cancer samples

Substance | peptide additionally detected on colorectal cancers
SEQ ID NO: 34 (SLVSEQLEPA; listed as Homo sapiens) | 8/24

same assay, conditions: positive/measured gallbladder cancer samples

Substance | peptide additionally detected on gallbladder cancers
SEQ ID NO: 7 (SIFEGLLSGV; listed as Homo sapiens) | 1/3

same assay, conditions: positive/measured gastric cancer samples

Substance | peptide additionally detected on gastric cancers
SEQ ID NO: 34 (SLVSEQLEPA; listed as Homo sapiens) | 1/46
SEQ ID NO: 37 (YTQPFSHYGQAL; listed as Homo sapiens) | 7/46

same assay, conditions: positive/measured lung cancer samples

Substance | peptide additionally detected on lung cancers
SEQ ID NO: 7 (SIFEGLLSGV; listed as Homo sapiens) | 5/91
SEQ ID NO: 34 (SLVSEQLEPA; listed as Homo sapiens) | 5/91
SEQ ID NO: 37 (YTQPFSHYGQAL; listed as Homo sapiens) | 1/91
SEQ ID NO: 1 (STYGGGLSV; listed as Homo sapiens) | 4/91

same assay, conditions: positive/measured ovarian cancer samples

Substance | peptide additionally detected on ovarian cancers
SEQ ID NO: 7 (SIFEGLLSGV; listed as Homo sapiens) | 1/20
SEQ ID NO: 34 (SLVSEQLEPA; listed as Homo sapiens) | 1/20

same assay, conditions: positive/measured pancreatic cancer samples

Substance | peptide additionally detected on pancreatic cancers
SEQ ID NO: 37 (YTQPFSHYGQAL; listed as Homo sapiens) | 1/19

same assay, conditions: positive/measured prostate cancer samples

Substance | peptide additionally detected on prostate cancers
SEQ ID NO: 7 (SIFEGLLSGV; listed as Homo sapiens) | 1/43

same assay, conditions: positive/measured urinary bladder cancer samples

Substance | peptide additionally detected on urinary bladder cancers
SEQ ID NO: 7 (SIFEGLLSGV; listed as Homo sapiens) | 1/4
SEQ ID NO: 34 (SLVSEQLEPA; listed as Homo sapiens) | 2/4

— patent US12351616B2, “Peptides and combination of peptides for use in immunotherapy against esophageal cancer and other cancers” (Immatics Biotechnologies GmbH, priority 2015, dated 2025)
